By UniProt entry, the sequences of proteins in these tests, tags left out.
UniProt Q0JBA9, entry or part of it: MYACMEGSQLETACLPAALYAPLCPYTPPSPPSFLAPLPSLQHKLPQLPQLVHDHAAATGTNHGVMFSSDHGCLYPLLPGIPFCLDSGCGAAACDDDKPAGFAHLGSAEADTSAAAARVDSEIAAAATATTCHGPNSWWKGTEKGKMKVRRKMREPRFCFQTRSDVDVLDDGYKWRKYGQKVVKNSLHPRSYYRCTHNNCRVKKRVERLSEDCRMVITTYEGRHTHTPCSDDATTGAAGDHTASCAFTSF

This is one part of the list.
These sequences were tested against OsWRKY34 (Oryza sativa, UniProt Q0JBA9 1-250) (assay: protein-binding microarray (RPBM); PBS, 2% BSA, 51.3 ng/ul salmon testes DNA, 50 uM zinc acetate, 200 nM TF, 25 C, 1 h; high values mean tight binding). Settings: protein: recombinant; tags: N-terminal polyhistidine and DsRed monomer fusion (pET32a); label: CyDye5-dUTP incorporated in the synthesized complementary strand; 3' TTTTT single-stranded linker to array surface; dsDNA, one strand shown.
Outline: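 Ni–NTA purification followed expression in E. coli BL21-CodonPlus of transcription factors fused N-terminally to a polyhistidine tag and DsRed. At 200 nM in PBS with 2% BSA, salmon testes DNA and 50 µM zinc acetate, the protein was incubated for 1 h at 25 °C with a custom Agilent array that had been primer-extended with Cy5-dUTP and blocked with 2% BSA. After washing, the array was read on an Axon 4000B scanner. The binding signal is per-feature fluorescence intensity in arbitrary units.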
“CTCTGCTTCTCGTGTTCTTGCTGTCCGCCGATCGCCGGGTCGGAGTCACCTAGTGCAG” was tested, and the binding signal was 8230 fluorescence intensity (a.u.). With “TAATAAAGATGGTTTCTGTCCGTTTCGTTTCCGTATCGTTCGGAGTCACCTAGTGCAG” the binding signal was 8390 fluorescence intensity (a.u.). “CATCTTTTATGGGCCTTACCGGTAGATGGCCGTACGGCCCCGGAGTCACCTAGTGCAG” was tested, and the binding signal was 10500 fluorescence intensity (a.u.). With “TCGCTTCACTGCTTCCCTACTACACACTCGCCGCCATTCCCGGAGTCACCTAGTGCAG” the binding signal was 8270 fluorescence intensity (a.u.). “TCCCTCGTCACCATCCTCCTCACCTCCTCCGCGGTGGCCGCGGAGTCACCTAGTGCAG” was tested, and the binding signal was 9890 fluorescence intensity (a.u.). For “GGAGGGATATGAATTTTTCCTTTGATGCATTCCTTTGAAACGGAGTCACCTAGTGCAG”, the binding signal was 8390 fluorescence intensity (a.u.). “GGAGCAGCAAGTACACACTTCAATTCTTTTCTGCTTCGAACGGAGTCACCTAGTGCAG” was tested, and the binding signal was 9290 fluorescence intensity (a.u.). In the case of “CTTTGTGCTGGACCGACGACGTCGTTCGCTCTTTTATCCTCGGAGTCACCTAGTGCAG”, the binding signal was 9040 fluorescence intensity (a.u.). For “TGGTAATTTAGTGTCCATTATGGTGTTTCTTAATTGCTTTCGGAGTCACCTAGTGCAG”, the binding signal was 8560 fluorescence intensity (a.u.). “GTGGTGCATCAGTATATTCTCCAATGTTAATGTTCTCTCTCGGAGTCACCTAGTGCAG” was tested, and the binding signal was 8700 fluorescence intensity (a.u.). “GTTGGTCGGTGGCCGCCCGTCGCTTCTCCTCTTCCGACGCCGGAGTCACCTAGTGCAG” was tested, and the binding signal was 8080 fluorescence intensity (a.u.). For “ATATCGGTCATGACGTCGTGTGTGTCGCATTGTACATGATCGGAGTCACCTAGTGCAG”, the binding signal was 9070 fluorescence intensity (a.u.). “GGCCGAATCCTTTTCTCTCCCTTCGGCTCAATTGGCCCAGCGGAGTCACCTAGTGCAG” was tested, and the binding signal was 9900 fluorescence intensity (a.u.). “CGCGACCCCGTTCAGTCAACCGTCATTCCGTCTCTTGCTCCGGAGTCACCTAGTGCAG” was tested, and the binding signal was 9280 fluorescence intensity (a.u.). In the case of “GACTTACCTTCATTATTATCGAGTTGATATTTTCAATGTTCGGAGTCACCTAGTGCAG”, the binding signal was 8310 fluorescence intensity (a.u.). For “CGCTCAATTTCTATCCCTCTGTCTTTACTTCTCTCTCCATCGGAGTCACCTAGTGCAG”, the binding signal was 10500 fluorescence intensity (a.u.). For “CTTCCTATTCAATTTGGGCCAAACTCCCATTCATTTGGCCCGGAGTCACCTAGTGCAG”, the binding signal was 10200 fluorescence intensity (a.u.). For “ATGATGTGTTTCAGTCTGTACCATATCGTTTTGACGTTTTCGGAGTCACCTAGTGCAG”, the binding signal was 8520 fluorescence intensity (a.u.). “GCCTATTCATTCTCTGGAGATCCATTAAATTTGAATGTCTCGGAGTCACCTAGTGCAG” was tested, and the binding signal was 8550 fluorescence intensity (a.u.). With “ATCCAATCTTGCCGCTCTCTGGGCTCACAGTTTCTTAATTCGGAGTCACCTAGTGCAG” the binding signal was 9160 fluorescence intensity (a.u.). In the case of “CTTTTTCCTGACTGCAGTCTCCCAGGATCGTAATCTTGTACGGAGTCACCTAGTGCAG”, the binding signal was 8360 fluorescence intensity (a.u.). With “GCTCCATCATGCATATTCTATCTATATCCAAAGCTTAACACGGAGTCACCTAGTGCAG” the binding signal was 8530 fluorescence intensity (a.u.). In the case of “CCCTTGACGCTTCATTTCCGTCTTCTCATTTAAACTTTATCGGAGTCACCTAGTGCAG”, the binding signal was 8130 fluorescence intensity (a.u.). In the case of “ACACCGTTGATTTTTTAGTATGTGTTTAACCGTTCGTCTTCGGAGTCACCTAGTGCAG”, the binding signal was 8800 fluorescence intensity (a.u.). For “GCAATTAATTAATTCTCCATCGTTGCAAGTTAGCCAATTTCGGAGTCACCTAGTGCAG”, the binding signal was 8350 fluorescence intensity (a.u.). For “ACCCGTTGTAACGCGCGAGCTTATTTTTTTCTCTAGTCTTCGGAGTCACCTAGTGCAG”, the binding signal was 14300 fluorescence intensity (a.u.). With “GTCCAGGTTGGTTTTCATGGGTCGAGTGGCATCAGATGGGCGGAGTCACCTAGTGCAG” the binding signal was 10100 fluorescence intensity (a.u.). With “ATTGCCAAATTTCTTGATTCGCTGCCAAGTACTACATCCCCGGAGTCACCTAGTGCAG” the binding signal was 8920 fluorescence intensity (a.u.). For “GAAGAAGGGAGGAGGAGGGGAGGGAGAGGAGTTGGAAGAGCGGAGTCACCTAGTGCAG”, the binding signal was 9020 fluorescence intensity (a.u.). With “GTCCTTGTTTGATTTGCTGCCATCAGAAAGAGAGATCTCTCGGAGTCACCTAGTGCAG” the binding signal was 9100 fluorescence intensity (a.u.). In the case of “TTGGGTGTGCTAACTATTGGGTGGTATATTCTGAAAATTCCGGAGTCACCTAGTGCAG”, the binding signal was 11900 fluorescence intensity (a.u.). For “TAACCTTTTTAGCTTTTATATAGTTCTATTTTGCTTTTATCGGAGTCACCTAGTGCAG”, the binding signal was 8830 fluorescence intensity (a.u.). For “CTTTTTTTTATAGATGATGAGGGCGGGTGAGCAGTATTGTCGGAGTCACCTAGTGCAG”, the binding signal was 9130 fluorescence intensity (a.u.). With “ACTGGTGTCCCTGTTTTGCTCTGTAGTATAAAGCCACGCACGGAGTCACCTAGTGCAG” the binding signal was 8820 fluorescence intensity (a.u.). In the case of “CGTCGCCTTTCCTCTCTCTCTCTCTCTCTCTCTCTGCGCACGGAGTCACCTAGTGCAG”, the binding signal was 8370 fluorescence intensity (a.u.). With “TCTCTCGATCCCCTAACGCGCTCTCTCTCTTTCTCTCTCGCGGAGTCACCTAGTGCAG” the binding signal was 10400 fluorescence intensity (a.u.). In the case of “CCACCACCACCAGTCCATTACCGCTCGCTCGCTGCTCCCCCGGAGTCACCTAGTGCAG”, the binding signal was 9490 fluorescence intensity (a.u.). For “ACAAACACTCGAGCTCACACCTGCTCGATCAAAATCCTCCCGGAGTCACCTAGTGCAG”, the binding signal was 8780 fluorescence intensity (a.u.). With “AGTTATAATGTTGCCTACGCTGATCTACTGTTTTTCTTCTCGGAGTCACCTAGTGCAG” the binding signal was 8150 fluorescence intensity (a.u.). “GGATAAAATCGTAGCTAGTATTATATTTTGTTATATTCATCGGAGTCACCTAGTGCAG” was tested, and the binding signal was 8050 fluorescence intensity (a.u.). With “AAATAGTCTTCACCCGTTACAACGCATGTGCATTTTTTATCGGAGTCACCTAGTGCAG” the binding signal was 10300 fluorescence intensity (a.u.). With “TGCTTTTCGGTCAGTTGTTTGGCTGCAATAACTGTAAACTCGGAGTCACCTAGTGCAG” the binding signal was 10200 fluorescence intensity (a.u.).

— PMC7819943, “Rice protein-binding microarrays: a tool to detect cis-acting elements near promoter regions in rice”
